Results from patent publication US20240092867A1.
No constants are given. Whether binding was seen depends on the method and setting. Binding calls can cover weak binding; strength is not graded here.

Amino acid sequences for entries named in this document (tags omitted). A change or cut given only in a name is not applied to a line headed by its entry.
UniProt Q9NRA1: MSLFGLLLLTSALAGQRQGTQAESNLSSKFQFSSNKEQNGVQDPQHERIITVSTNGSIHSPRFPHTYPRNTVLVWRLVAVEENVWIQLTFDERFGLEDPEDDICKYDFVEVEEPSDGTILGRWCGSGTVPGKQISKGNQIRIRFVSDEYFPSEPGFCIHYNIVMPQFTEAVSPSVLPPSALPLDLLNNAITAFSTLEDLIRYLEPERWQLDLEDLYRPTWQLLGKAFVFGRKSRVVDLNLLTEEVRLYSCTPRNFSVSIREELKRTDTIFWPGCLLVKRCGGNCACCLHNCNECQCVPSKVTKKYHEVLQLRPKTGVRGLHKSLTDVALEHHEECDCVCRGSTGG
UniProt Q16787: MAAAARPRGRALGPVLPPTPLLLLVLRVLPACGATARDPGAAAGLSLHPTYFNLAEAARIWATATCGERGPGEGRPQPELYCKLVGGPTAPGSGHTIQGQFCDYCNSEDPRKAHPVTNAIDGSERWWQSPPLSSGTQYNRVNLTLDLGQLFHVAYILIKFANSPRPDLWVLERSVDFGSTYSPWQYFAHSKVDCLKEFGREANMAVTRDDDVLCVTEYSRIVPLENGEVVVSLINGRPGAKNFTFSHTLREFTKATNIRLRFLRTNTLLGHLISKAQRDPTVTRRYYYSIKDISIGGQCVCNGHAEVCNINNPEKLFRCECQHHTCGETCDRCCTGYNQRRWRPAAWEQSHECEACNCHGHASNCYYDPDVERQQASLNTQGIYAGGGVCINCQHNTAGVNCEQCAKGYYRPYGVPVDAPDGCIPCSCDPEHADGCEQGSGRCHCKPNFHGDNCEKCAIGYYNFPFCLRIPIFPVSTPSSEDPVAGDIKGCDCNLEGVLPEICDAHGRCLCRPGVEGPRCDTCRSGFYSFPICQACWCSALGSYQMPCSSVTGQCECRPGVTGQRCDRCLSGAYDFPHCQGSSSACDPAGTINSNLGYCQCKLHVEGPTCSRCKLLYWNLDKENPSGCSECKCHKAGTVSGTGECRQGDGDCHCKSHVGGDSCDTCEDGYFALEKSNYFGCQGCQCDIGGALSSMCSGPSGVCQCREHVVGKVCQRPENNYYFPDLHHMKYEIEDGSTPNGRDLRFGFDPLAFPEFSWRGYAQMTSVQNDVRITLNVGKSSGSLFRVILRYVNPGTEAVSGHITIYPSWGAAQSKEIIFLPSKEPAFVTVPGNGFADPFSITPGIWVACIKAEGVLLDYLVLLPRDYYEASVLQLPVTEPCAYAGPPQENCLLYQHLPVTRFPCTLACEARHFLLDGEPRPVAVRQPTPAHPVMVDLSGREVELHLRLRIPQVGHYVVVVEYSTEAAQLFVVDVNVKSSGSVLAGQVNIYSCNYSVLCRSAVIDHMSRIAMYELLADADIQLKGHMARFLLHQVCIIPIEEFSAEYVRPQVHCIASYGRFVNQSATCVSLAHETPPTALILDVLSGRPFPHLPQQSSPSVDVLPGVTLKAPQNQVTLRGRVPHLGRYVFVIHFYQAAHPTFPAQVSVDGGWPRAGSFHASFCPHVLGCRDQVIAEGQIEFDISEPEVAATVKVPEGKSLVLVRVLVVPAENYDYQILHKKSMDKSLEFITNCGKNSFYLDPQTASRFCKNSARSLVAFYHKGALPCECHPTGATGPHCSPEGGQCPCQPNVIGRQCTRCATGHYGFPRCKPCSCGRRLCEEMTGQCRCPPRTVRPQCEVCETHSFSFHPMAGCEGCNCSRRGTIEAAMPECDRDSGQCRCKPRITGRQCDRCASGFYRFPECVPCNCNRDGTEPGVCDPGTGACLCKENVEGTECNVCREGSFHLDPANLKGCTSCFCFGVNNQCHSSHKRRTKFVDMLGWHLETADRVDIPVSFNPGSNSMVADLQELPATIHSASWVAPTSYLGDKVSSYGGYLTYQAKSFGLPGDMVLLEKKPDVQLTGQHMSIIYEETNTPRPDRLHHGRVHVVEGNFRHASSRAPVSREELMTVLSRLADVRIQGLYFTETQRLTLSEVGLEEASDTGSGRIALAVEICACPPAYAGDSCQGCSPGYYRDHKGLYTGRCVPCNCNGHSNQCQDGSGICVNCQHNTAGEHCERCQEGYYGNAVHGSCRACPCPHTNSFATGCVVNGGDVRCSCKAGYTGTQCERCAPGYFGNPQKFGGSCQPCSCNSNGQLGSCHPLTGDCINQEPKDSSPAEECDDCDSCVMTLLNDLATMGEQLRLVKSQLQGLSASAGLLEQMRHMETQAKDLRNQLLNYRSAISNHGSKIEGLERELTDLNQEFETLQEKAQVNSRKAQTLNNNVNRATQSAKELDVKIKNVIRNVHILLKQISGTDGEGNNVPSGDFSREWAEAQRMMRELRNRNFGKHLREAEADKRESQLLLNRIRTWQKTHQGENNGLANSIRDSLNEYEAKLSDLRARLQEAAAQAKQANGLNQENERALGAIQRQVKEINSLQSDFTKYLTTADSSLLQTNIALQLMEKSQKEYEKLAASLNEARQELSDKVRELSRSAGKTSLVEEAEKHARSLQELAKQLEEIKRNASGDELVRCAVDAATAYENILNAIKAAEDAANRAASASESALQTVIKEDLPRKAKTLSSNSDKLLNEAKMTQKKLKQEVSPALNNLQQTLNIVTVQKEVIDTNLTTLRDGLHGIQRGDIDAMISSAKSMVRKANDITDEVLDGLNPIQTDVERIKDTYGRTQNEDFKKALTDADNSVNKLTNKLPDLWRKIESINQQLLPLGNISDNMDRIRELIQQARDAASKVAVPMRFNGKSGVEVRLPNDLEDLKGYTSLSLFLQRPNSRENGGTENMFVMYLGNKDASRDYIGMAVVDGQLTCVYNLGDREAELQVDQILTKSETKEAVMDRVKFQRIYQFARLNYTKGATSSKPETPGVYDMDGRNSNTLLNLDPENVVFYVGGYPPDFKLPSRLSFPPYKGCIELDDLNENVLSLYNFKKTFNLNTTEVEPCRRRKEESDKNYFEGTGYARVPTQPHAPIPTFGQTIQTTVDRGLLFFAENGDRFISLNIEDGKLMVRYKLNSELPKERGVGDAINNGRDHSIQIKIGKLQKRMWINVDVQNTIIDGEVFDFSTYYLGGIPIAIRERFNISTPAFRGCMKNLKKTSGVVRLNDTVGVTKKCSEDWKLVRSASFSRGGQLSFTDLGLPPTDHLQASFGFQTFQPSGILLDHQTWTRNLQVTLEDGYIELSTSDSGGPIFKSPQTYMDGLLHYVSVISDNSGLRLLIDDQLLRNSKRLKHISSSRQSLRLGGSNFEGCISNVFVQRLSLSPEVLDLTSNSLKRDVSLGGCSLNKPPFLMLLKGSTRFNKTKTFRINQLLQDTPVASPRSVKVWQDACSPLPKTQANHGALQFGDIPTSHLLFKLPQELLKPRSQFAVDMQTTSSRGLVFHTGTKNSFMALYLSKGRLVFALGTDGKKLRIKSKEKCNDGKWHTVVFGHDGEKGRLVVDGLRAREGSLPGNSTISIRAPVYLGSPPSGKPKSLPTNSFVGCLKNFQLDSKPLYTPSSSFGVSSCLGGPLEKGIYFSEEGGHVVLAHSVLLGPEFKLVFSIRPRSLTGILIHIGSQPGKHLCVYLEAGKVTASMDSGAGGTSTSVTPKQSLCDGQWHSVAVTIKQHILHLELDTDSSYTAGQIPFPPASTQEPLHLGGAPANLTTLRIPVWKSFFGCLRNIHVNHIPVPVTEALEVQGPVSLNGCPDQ
UniProt Q16363: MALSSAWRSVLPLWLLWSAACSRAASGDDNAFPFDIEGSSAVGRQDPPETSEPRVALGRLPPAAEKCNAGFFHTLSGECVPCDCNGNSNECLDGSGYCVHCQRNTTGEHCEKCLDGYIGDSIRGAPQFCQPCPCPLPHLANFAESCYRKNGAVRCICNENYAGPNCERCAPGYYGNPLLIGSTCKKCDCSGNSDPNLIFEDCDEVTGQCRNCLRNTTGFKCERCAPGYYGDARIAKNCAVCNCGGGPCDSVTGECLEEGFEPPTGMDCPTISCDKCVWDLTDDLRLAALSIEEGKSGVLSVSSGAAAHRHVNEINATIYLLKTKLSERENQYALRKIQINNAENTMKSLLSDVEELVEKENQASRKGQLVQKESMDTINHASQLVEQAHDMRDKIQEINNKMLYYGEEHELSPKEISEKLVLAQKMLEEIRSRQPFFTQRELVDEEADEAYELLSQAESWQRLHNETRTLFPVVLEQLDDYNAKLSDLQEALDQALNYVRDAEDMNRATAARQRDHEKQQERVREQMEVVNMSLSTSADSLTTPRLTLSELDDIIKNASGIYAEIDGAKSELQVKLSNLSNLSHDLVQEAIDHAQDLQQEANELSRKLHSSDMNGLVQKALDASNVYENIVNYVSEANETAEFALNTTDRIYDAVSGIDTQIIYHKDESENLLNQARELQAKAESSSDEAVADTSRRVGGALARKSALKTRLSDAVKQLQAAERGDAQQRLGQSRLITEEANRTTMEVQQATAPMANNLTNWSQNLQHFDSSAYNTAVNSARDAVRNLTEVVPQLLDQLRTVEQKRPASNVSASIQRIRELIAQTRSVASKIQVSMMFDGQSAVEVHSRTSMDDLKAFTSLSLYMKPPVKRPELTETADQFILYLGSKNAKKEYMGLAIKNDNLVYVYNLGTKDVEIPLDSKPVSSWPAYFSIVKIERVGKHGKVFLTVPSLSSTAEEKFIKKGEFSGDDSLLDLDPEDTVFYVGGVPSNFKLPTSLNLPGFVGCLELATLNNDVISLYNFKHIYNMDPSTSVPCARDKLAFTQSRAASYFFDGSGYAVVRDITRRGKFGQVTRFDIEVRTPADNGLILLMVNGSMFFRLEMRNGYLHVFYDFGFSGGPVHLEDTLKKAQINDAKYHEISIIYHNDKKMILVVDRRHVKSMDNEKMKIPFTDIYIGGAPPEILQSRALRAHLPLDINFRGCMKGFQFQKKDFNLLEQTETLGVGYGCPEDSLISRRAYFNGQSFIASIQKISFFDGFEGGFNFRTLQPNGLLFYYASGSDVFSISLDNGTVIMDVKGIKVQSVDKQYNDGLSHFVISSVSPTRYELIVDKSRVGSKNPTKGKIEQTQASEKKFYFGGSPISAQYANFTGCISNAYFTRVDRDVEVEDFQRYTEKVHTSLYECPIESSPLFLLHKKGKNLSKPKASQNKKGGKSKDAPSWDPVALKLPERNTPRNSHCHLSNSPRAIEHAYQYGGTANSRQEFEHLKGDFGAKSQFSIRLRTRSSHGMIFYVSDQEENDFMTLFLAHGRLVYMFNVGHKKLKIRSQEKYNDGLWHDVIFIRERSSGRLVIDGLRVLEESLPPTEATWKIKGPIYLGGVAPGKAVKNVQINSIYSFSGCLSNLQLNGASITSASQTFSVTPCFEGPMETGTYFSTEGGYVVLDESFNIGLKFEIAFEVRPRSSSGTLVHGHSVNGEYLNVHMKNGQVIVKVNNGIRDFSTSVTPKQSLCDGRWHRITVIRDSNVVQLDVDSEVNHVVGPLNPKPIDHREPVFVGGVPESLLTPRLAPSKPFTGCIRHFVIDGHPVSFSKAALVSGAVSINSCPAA

Each substance was assayed against platelet-derived growth factor (PDGF)-CC (UniProt Q9NRA1) (assay: ELISA, GF coated 50 nM, vWF 1 µg/mL).
With “human plasma-derived vWF (from UniProt P04275 764-2813)” the binding was “binds”.

These substances were tested against platelet-derived growth factor (PDGF)-CC (UniProt Q9NRA1) (assay: ELISA, GF coated, laminin 10 nM).
With “laminin-111 (from UniProt P25391 18-3075; P07942 22-1786; P11047 34-1609)” the binding was “binds”. With “laminin-211 (from UniProt P24043 23-3122; P07942 22-1786; P11047 34-1609)” the binding was “binds”. “laminin-332 (from UniProt Q16787 28-1724; Q13751 18-1172; Q13753 22-1193)” was tested, and the binding was “binds”. For “laminin-411 (from UniProt Q16363 25-1823; P07942 22-1786; P11047 34-1609)”, the binding was “binds”. For “laminin-421 (from UniProt Q16363 25-1823; P55268 33-1798; P11047 34-1609)”, the binding was “binds”. With “laminin-511 (from UniProt O15230 36-3695; P07942 22-1786; P11047 34-1609)” the binding was “binds”. In the case of “laminin-521 (from UniProt O15230 36-3695; P55268 33-1798; P11047 34-1609)”, the binding is reported as “binds”.
